Laboratory results: paper PMC11648614
These are yes or no findings as the source states them, for the method shown. Some binding calls cover weakened binding; strength is not graded here.

Chains of the proteins cited; added tags and fusions are not shown. Lines headed by an entry give the natural chain unless they say otherwise; changes in a name come on top.
UniProt P60953: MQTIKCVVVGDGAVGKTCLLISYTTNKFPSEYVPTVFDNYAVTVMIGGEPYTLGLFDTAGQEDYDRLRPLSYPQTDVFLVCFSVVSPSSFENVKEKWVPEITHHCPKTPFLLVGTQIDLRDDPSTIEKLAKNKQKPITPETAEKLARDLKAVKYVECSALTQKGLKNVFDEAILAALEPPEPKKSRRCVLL

Target: Cdc42 (his-tagged, human constitutively active mutant Q61L) (human) (UniProt P60953)
Assay: recruitment to a supported lipid bilayer, confocal microscopy; 1 uM human His-Cdc42 incubated 10 min on SLBs containing 0.1 to 5% DGS-NTA-Ni, unbound Cdc42 washed away 3x with SLB buffer; C. elegans WSP-1 (100 nM, 10% 488-tagged) added in actin polymerization buffer containing 150 mM KCl; both purified

binding: binds
B1: C. elegans N-WASP (WSP-1) (protein, UniProt Q17795 1-607)
chain: MSVYPPTPTMSMMNGGVDRKRAKRPPNVGSKELNSQENEMLFALVGSEAVCLTAAVVQLLKSDRGAWRVDLPHGVISLVKDYAQRAYFLRIFDILEERIVWDFKLYKAFRAQSFPQCRKLLAFEQMENGEDGVVIGLNFFSEYEAAEFKEHLERRHAQERKSTSTTRPAHPGMPIVVSSGIGSTPTRQFEITQAYGGTIRGPPMAIGGGQGITQMGTMAAAPQSHTHTDGNASSSGSWFRKDKNKKKDKKSKIKKEDISNPTNFQHKAHVGWNQDSGFSNTVYDDDMDEATKNILKAAGLESNNLNEDDKKFVKKFIAKNYDKYVSVGSLDPSQISSPLPPPIQQHPQMNQSWNQTPVRQYKPSFPSSAPIGSGASSYSTPAAPPPPTRVESHGLAPARPPPPPPSSGTRGIAPSRPLPQAPNYGTPENRPHAVPPPPPPPPPQSFGMAPISSAAPPPPPPPPPMGLPAVGAGAPPPPPPPPPSGAGGPASVLAKLPPAQDGRSNLLAEIQAGKQLRSVQQTADSPKSAGGDARGDVMAQIRQGAQLKHVDAAAEQERRKSTTSGAAGMGGLAGALAKALEERRMNMGIDDTSDDDDDEDDKNEWSD
modifications: 10% 488-tagged
